Article PMC5841321
No constants are given. Whether binding was seen depends on the method and setting. Binding seen in cells or lysates may run through a third protein. These calls come from enrichment with a bait or labelling near it, and not all partners need be listed.

T1: E3 ubiquitin-protein ligase Midline-1 (UniProt O15344)
T1 sequence: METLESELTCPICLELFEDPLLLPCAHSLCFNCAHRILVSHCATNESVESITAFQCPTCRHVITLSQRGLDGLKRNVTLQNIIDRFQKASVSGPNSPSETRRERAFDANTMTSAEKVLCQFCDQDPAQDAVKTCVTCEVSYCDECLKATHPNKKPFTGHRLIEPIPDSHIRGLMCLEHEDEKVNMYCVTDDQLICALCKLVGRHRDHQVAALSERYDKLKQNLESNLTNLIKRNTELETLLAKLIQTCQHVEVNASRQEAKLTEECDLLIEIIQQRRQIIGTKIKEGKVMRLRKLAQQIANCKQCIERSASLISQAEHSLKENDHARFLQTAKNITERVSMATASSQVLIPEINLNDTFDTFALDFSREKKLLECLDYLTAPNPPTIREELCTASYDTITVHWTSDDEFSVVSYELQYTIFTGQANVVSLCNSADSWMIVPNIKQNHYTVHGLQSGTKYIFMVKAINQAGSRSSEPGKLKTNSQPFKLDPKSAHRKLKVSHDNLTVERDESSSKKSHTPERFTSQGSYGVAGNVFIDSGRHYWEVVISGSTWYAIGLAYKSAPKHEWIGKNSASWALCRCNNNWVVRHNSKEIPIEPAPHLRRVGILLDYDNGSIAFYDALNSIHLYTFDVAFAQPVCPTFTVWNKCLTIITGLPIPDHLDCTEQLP


These binders were tested against T1, E3 ubiquitin-protein ligase Midline-1 (assay: affinity purification with mass spectrometry; MID1-FLAG expressed in HEK293T, lysate in TKM buffer (20 mM Tris pH 7.4, 100 mM KCl, 5 mM MgCl2, 0.5% NP40, 1 mM DTT), anti-FLAG M1 agarose overnight at 4 °C, 6 washes; untransfected cells as control; Q-Exactive, MaxQuant, 1% FDR).

Binder	binding
Phosphoribosyl pyrophosphate synthase-associated protein 2 (protein, UniProt O60256 1-369) MFCVTPPELETKMNITKGGLVLFSANSNSSCMELSKKIAERLGVEMGKVQVYQEPNRETRVQIQESVRGKDVFIIQTVSKDVNTTIMELLIMVYACKTSCAKSIIGVIPYFPYSKQCKMRKRGSIVSKLLASMMCKAGLTHLITMDLHQKEIQGFFNIPVDNLRASPFLLQYIQEEIPDYRNAVIVAKSPASAKRAQSFAERLRLGIAVIHGEAQDAESDLVDGRHSPPMVRSVAAIHPSLEIPMLIPKEKPPITVVGDVGGRIAIIVDDIIDDVDSFLAAAETLKERGAYKIFVMATHGLLSSDAPRRIEESAIDEVVVTNTIPHEVQKLQCPKIKTVDISMILSEAIRRIHNGESMSYLFRNIGLDD	binds
RNA-binding protein 27 (protein, UniProt Q9P2N5 1-1060) MLIEDVDALKSWLAKLLEPICDADPSALANYVVALVKKDKPEKELKAFCADQLDVFLQKETSGFVDKLFESLYTKNYLPLLEPVKPEPKPLVQEKEEIKEEVFQEPAEEERDGRKKKYPSPQKTRSESSERRTREKKREDGKWRDYDRYYERNELYREKYDWRRGRSKSRSKSRGLSRSRSRSRGRSKDRDPNRNVEHRERSKFKSERNDLESSYVPVSAPPPNSSEQYSSGAQSIPSTVTVIAPAHHSENTTESWSNYYNNHSSSNSFGRNLPPKRRCRDYDERGFCVLGDLCQFDHGNDPLVVDEVALPSMIPFPPPPPGLPPPPPPGMLMPPMPGPGPGPGPGPGPGPGPGPGPGHSMRLPVPQGHGQPPPSVVLPIPRPPITQSSLINSRDQPGTSAVPNLASVGTRLPPPLPQNLLYTVSERQPMYSREHGAAASERLQLGTPPPLLAARLVPPRNLMGSSIGYHTSVSSPTPLVPDTYEPDGYNPEAPSITSSGRSQYRQFFSRTQTQRPNLIGLTSGDMDVNPRAANIVIQTEPPVPVSINSNITRVVLEPDSRKRAMSGLEGPLTKKPWLGKQGNNNQNKPGFLRKNQYTNTKLEVKKIPQELNNITKLNEHFSKFGTIVNIQVAFKGDPEAALIQYLTNEEARKAISSTEAVLNNRFIRVLWHRENNEQPTLQSSAQLLLQQQQTLSHLSQQHHHLPQHLHQQQVLVAQSAPSTVHGGIQKMMSKPQTSGAYVLNKVPVKHRLGHAGGNQSDASHLLNQSGGAGEDCQIFSTPGHPKMIYSSSNLKTPSKLCSGSKSHDVQEVLKKKQEAMKLQQDMRKKRQEVLEKQIECQKMLISKLEKNKNMKPEERANIMKTLKELGEKISQLKDELKTSSAVSTPSKVKTKTEAQKELLDTELDLHKRLSSGEDTTELRKKLSQLQVEAARLGILPVGRGKTMSSQGRGRGRGRGGRGRGSLNHMVVDHRPKALTVGGFIEEEKEDLLQHFSTANQGPKFKDRRLQISWHKPKVPSISTETEEEEVKEEETETSDLFLPDDDDEDEDEYESRSWRR	binds
Phosphoribosyl pyrophosphate synthase-associated protein 1 (protein, UniProt Q14558 1-356) MNAARTGYRVFSANSTAACTELAKRITERLGAELGKSVVYQETNGETRVEIKESVRGQDIFIIQTIPRDVNTAVMELLIMAYALKTACARNIIGVIPYFPYSKQSKMRKRGSIVCKLLASMLAKAGLTHIITMDLHQKEIQGFFSFPVDNLRASPFLLQYIQEEIPNYRNAVIVAKSPDAAKRAQSYAERLRLGLAVIHGEAQCTELDMDDGRHSPPMVKNATVHPGLELPLMMAKEKPPITVVGDVGGRIAIIVDDIIDDVESFVAAAEILKERGAYKIYVMATHGILSAEAPRLIEESSVDEVVVTNTVPHEVQKLQCPKIKTVDISLILSEAIRRIHNGESMAYLFRNITVDD	binds
RNA-binding protein 28 (protein, UniProt Q9NW13 1-759) MAGLTLFVGRLPPSARSEQLEELFSQVGPVKQCFVVTEKGSKACRGFGYVTFSMLEDVQRALKEITTFEGCKINVTVAKKKLRNKTKEKGKNENSECPKKEPKAKKAKVADKKARLIIRNLSFKCSEDDLKTVFAQFGAVLEVNIPRKPDGKMRGFGFVQFKNLLEAGKALKGMNMKEIKGRTVAVDWAVAKDKYKDTQSVSAIGEEKSHESKHQESVKKKGREEEDMEEEENDDDDDDDDEEDGVFDDEDEEEENIESKVTKPVQIQKRAVKRPAPAKSSDHSEEDSDLEESDSIDDGEELAQSDTSTEEQEDKAVQVSNKKKRKLPSDVNEGKTVFIRNLSFDSEEEELGELLQQFGELKYVRIVLHPDTEHSKGCAFAQFMTQEAAQKCLLAASPENEAGGLKLDGRQLKVDLAVTRDEAAKLQTTKVKKPTGTRNLYLAREGLIRAGTKAAEGVSAADMAKRERFELLKHQKLKDQNIFVSRTRLCLHNLPKAVDDKQLRKLLLSATSGEKGVRIKECRVMRDLKGVHGNMKGQSLGYAFAEFQEHEHALKALRLINNNPEIFGPLKRPIVEFSLEDRRKLKMKELRIQRSLQKMRSKPATGEPQKGQPEPAKDQQQKAAQHHTEEQSKVPPEQKRKAGSTSWTGFQTKAEVEQVELPDGKKRRKVLALPSHRGPKIRLRDKGKVKPVHPKKPKPQINQWKQEKQQLSSEQVSRKKAKGNKTETRFNQLVEQYKQKLLGPSKGAPLAKRSKWFDS	binds
RNA-binding protein 14 (protein, UniProt Q96PK6 1-669) MKIFVGNVDGADTTPEELAALFAPYGTVMSCAVMKQFAFVHMRENAGALRAIEALHGHELRPGRALVVEMSRPRPLNTWKIFVGNVSAACTSQELRSLFERRGRVIECDVVKDYAFVHMEKEADAKAAIAQLNGKEVKGKRINVELSTKGQKKGPGLAVQSGDKTKKPGAGDTAFPGTGGFSATFDYQQAFGNSTGGFDGQARQPTPPFFGRDRSPLRRSPPRASYVAPLTAQPATYRAQPSVSLGAAYRAQPSASLGVGYRTQPMTAQAASYRAQPSVSLGAPYRGQLASPSSQSAAASSLGPYGGAQPSASALSSYGGQAAAASSLNSYGAQGSSLASYGNQPSSYGAQAASSYGVRAAASSYNTQGAASSLGSYGAQAASYGAQSAASSLAYGAQAASYNAQPSASYNAQSAPYAAQQAASYSSQPAAYVAQPATAAAYASQPAAYAAQATTPMAGSYGAQPVVQTQLNSYGAQASMGLSGSYGAQSAAAATGSYGAAAAYGAQPSATLAAPYRTQSSASLAASYAAQQHPQAAASYRGQPGNAYDGAGQPSAAYLSMSQGAVANANSTPPPYERTRLSPPRASYDDPYKKAVAMSKRYGSDRRLAELSDYRRLSESQLSFRRSPTKSSLDYRRLPDAHSDYARYSGSYNDYLRAAQMHSGYQRRM	binds

Next, values leading:

binding	Binder
binds	Coiled-coil domain-containing protein 124 (protein, UniProt Q96CT7 1-223) MPKKFQGENTKSAAARARRAEAKAAADAKKQKELEDAYWKDDDKHVMRKEQRKEEKEKRRLDQLERKKETQRLLEEEDSKLKGGKAPRVATSSKVTRAQIEDTLRRDHQLREAPDTAEKAKSHLEVPLEENVNRRVLEEGSVEARTIEDAIAVLSVAEEAADRHPERRMRAAFTAFEEAQLPRLKQENPNMRLSQLKQLLKKEWLRSPDNPMNQRAVPFNAPK
binds	Serine/threonine-protein kinase RIO1 (protein, UniProt Q9BRS2 1-568) MDYRRLLMSRVVPGQFDDADSSDSENRDLKTVKEKDDILFEDLQDNVNENGEGEIEDEEEEGYDDDDDDWDWDEGVGKLAKGYVWNGGSNPQANRQTSDSSSAKMSTPADKVLRKFENKINLDKLNVTDSVINKVTEKSRQKEADMYRIKDKADRATVEQVLDPRTRMILFKMLTRGIITEINGCISTGKEANVYHASTANGESRAIKIYKTSILVFKDRDKYVSGEFRFRHGYCKGNPRKMVKTWAEKEMRNLIRLNTAEIPCPEPIMLRSHVLVMSFIGKDDMPAPLLKNVQLSESKARELYLQVIQYMRRMYQDARLVHADLSEFNMLYHGGGVYIIDVSQSVEHDHPHALEFLRKDCANVNDFFMRHSVAVMTVRELFEFVTDPSITHENMDAYLSKAMEIASQRTKEERSSQDHVDEEVFKRAYIPRTLNEVKNYERDMDIIMKLKEEDMAMNAQQDNILYQTVTGLKKDLSGVQKVPALLENQVEERTCSDSEDIGSSECSDTDSEEQGDHARPKKHTTDPDIDKKERKKMVKEAQREKRKNKIPKHVKKRKEKTAKTKKGK
binds	Reticulocalbin-2 (protein, UniProt Q14257 23-317) GKAEELHYPLGERRSDYDREALLGVQEDVDEYVKLGHEEQQKRLQAIIKKIDLDSDGFLTESELSSWIQMSFKHYAMQEAKQQFVEYDKNSDDTVTWDEYNIQMYDRVIDFDENTALDDAEEESFRKLHLKDKKRFEKANQDSGPGLSLEEFIAFEHPEEVDYMTEFVIQEALEEHDKNGDGFVSLEEFLGDYRWDPTANEDPEWILVEKDRFVNDYDKDNDGRLDPQELLPWVVPNNQGIAQEEALHLIDEMDLNGDKKLSEEEILENPDLFLTSEATDYGRQLHDDYFYHDEL
binds	Pyrroline-5-carboxylate reductase (protein, UniProt P32322 1-319) MSVGFIGAGQLAFALAKGFTAAGVLAAHKIMASSPDMDLATVSALRKMGVKLTPHNKETVQHSDVLFLAVKPHIIPFILDEIGADIEDRHIVVSCAAGVTISSIEKKLSAFRPAPRVIRCMTNTPVVVREGATVYATGTHAQVEDGRLMEQLLSSVGFCTEVEEDLIDAVTGLSGSGPAYAFTALDALADGGVKMGLPRRLAVRLGAQALLGAAKMLLHSEQHPGQLKDNVSSPGGATIHALHVLESGGFRSLLINAVEASCIRTRELQSMADQEQVSPAAIKKTILDKVKLDSPAGTALSPSGHTKLLPRSLAPAGKD
binds	RNA 3-terminal phosphate cyclase-like protein (protein, UniProt Q9Y2P8 1-373) MATQAHSLSYAGCNFLRQRLVLSTLSGRPVKIRKIRARDDNPGLRDFEASFIRLLDKITNGSRIEINQTGTTLYYQPGLLYGGSVEHDCSVLRGIGYYLESLLCLAPFMKHPLKIVLRGVTNDQVDPSVDVLKATALPLLKQFGIDGESFELKIVRRGMPPGGGGEVVFSCPVRKVLKPIQLTDPGKIKRIRGMAYSVRVSPQMANRIVDSARSILNKFIPDIYIYTDHMKGVNSGKSPGFGLSLVAETTSGTFLSAELASNPQGQGAAVLPEDLGRNCARLLLEEIYRGGCVDSTNQSLALLLMTLGQQDVSKVLLGPLSPYTIEFLRHLKSFFQIMFKIETKPCGEELKGGDKVLMTCVGIGFSNLSKTLK
